Test results published in PMC9646716.
No constants are given. Whether binding was seen depends on the method and setting. Binding seen in cells or lysates may run through a third protein. Some results given as binding are weak or reduced against the parent protein; the word gives no strength.

Chains of the proteins cited; added tags and fusions are not shown.
UniProt Q61286: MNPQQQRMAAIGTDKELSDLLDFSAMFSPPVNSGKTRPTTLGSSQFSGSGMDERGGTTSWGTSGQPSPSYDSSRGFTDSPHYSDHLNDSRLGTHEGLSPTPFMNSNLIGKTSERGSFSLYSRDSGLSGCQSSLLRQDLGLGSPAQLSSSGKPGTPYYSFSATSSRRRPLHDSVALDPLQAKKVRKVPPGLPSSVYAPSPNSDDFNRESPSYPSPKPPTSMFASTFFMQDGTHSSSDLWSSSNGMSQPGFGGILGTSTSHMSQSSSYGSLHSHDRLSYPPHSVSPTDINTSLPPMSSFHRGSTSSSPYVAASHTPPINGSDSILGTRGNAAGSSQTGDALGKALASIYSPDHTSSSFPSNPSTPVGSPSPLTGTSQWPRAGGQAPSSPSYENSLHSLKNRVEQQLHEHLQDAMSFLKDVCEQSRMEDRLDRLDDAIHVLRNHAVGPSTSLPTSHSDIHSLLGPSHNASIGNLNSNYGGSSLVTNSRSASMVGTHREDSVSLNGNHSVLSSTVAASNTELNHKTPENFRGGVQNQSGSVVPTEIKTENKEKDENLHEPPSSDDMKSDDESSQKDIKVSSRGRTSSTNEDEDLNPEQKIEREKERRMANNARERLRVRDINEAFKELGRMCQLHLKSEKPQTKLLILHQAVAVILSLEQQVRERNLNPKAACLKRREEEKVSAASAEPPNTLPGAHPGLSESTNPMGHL
UniProt P10085: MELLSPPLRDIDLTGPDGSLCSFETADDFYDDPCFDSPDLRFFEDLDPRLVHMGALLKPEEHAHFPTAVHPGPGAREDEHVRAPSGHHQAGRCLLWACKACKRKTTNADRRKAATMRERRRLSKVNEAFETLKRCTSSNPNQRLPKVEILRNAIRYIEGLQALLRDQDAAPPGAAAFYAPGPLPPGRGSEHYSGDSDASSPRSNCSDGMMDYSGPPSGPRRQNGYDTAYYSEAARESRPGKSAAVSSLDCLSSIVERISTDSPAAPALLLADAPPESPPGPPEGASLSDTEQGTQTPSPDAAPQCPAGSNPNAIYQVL

B1: MYOG (protein, UniProt P12979 1-224)
chain: MELYETSPYFYQEPHFYDGENYLPVHLQGFEPPGYERTELSLSPEARGPLEEKGLGTPEHCPGQCLPWACKVCKRKSVSVDRRRAATLREKRRLKKVNEAFEALKRSTLLNPNQRLPKVEILRSAIQYIERLQALLSSLNQEERDLRYRGGGGPQPMVPSECNSHSASCSPEWGNALEFGPNPGDHLLAADPTDAHNLHSLTSIVDSITVEDMSVAFPDETMPN

Key:
[1] = target: transcription factor 12 (TCF12) (mouse (endogenous in C2C12)) (UniProt Q61286); experiment: co-IP; lysate of C2C12 myoblasts (0 h); anti-TCF12 (HEB A-6) or IgG on Protein-G beads, overnight at 4 °C, washed with PBST; blotted with anti-MYOD and anti-TCF12
[2] = target: transcription factor 12 (TCF12) (mouse (endogenous in C2C12)) (UniProt Q61286); experiment: condition: only in differentiated C2C12 myotubes (60 h); co-IP; lysate of C2C12 myotubes (60 h of differentiation); antibodies on Protein-G beads, overnight at 4 °C, washed with PBST; blotted
[3] = target: transcription factor 12 (TCF12) (mouse (endogenous in C2C12)) (UniProt Q61286); experiment: co-IP; lysate of C2C12 myotubes (60 h of differentiation); antibodies on Protein-G beads, overnight at 4 °C, washed with PBST; blotted

| Molecule | binding [1] | binding [2] | binding [3] |
| --- | --- | --- | --- |
| MYOD (from UniProt P10085 1-318) | binds | no binding |  |
| B1 |  |  | binds |
